Measurements taken from PMC6775114.
These are yes or no findings as the source states them, for the method shown. Binding seen in cells or lysates may run through a third protein. Here binding means that the protein was enriched with, or labelled near, the bait; the list need not be complete. No binding means not detected with the bait.

Sequences of proteins named here, by UniProt entry; tags and fusion partners are left off. A change or cut given only in a name is not applied to a line headed by its entry. A line that says so, or that is headed by a name, gives the form on record, which may keep a tag or linker. Residues count along the entry.
GST-nesprin-1-alpha2 wild type (aa1-842, SR1-5, KASH-less bait protein) (Q8NF91, form named): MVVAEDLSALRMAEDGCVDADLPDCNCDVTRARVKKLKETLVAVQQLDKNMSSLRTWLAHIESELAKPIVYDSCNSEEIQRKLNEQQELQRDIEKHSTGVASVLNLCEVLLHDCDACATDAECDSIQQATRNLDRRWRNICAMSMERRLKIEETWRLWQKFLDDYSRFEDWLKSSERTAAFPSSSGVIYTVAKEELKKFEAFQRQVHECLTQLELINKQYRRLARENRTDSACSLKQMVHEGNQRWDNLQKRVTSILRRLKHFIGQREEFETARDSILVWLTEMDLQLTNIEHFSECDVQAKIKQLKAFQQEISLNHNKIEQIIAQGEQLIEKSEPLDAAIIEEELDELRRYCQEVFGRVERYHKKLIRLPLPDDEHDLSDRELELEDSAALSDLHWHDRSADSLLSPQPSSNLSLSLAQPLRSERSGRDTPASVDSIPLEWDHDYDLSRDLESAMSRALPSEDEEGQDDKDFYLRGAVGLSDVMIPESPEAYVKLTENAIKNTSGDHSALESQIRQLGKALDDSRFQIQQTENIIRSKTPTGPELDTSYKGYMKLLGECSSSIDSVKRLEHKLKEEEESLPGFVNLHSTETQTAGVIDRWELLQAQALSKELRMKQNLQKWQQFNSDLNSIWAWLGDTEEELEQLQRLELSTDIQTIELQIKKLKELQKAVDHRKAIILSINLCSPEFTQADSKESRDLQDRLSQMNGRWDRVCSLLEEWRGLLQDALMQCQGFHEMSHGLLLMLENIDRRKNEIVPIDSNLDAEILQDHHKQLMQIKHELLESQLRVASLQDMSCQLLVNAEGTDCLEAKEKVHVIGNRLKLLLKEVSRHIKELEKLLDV
UniProt Q07866: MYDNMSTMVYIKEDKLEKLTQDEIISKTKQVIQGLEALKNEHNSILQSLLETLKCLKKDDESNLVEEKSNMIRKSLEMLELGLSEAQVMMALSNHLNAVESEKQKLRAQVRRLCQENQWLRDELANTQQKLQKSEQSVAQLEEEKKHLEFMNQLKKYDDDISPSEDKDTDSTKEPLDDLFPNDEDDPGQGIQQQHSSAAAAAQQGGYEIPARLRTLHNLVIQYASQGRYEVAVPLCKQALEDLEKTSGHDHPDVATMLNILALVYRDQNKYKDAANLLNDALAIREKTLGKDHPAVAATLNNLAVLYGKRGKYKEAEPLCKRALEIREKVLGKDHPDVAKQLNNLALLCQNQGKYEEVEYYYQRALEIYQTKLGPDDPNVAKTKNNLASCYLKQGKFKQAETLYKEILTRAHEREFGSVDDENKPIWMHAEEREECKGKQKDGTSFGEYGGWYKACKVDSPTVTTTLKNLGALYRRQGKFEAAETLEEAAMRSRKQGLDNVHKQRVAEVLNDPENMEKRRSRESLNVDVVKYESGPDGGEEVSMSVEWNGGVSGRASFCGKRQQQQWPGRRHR
UniProt P33176: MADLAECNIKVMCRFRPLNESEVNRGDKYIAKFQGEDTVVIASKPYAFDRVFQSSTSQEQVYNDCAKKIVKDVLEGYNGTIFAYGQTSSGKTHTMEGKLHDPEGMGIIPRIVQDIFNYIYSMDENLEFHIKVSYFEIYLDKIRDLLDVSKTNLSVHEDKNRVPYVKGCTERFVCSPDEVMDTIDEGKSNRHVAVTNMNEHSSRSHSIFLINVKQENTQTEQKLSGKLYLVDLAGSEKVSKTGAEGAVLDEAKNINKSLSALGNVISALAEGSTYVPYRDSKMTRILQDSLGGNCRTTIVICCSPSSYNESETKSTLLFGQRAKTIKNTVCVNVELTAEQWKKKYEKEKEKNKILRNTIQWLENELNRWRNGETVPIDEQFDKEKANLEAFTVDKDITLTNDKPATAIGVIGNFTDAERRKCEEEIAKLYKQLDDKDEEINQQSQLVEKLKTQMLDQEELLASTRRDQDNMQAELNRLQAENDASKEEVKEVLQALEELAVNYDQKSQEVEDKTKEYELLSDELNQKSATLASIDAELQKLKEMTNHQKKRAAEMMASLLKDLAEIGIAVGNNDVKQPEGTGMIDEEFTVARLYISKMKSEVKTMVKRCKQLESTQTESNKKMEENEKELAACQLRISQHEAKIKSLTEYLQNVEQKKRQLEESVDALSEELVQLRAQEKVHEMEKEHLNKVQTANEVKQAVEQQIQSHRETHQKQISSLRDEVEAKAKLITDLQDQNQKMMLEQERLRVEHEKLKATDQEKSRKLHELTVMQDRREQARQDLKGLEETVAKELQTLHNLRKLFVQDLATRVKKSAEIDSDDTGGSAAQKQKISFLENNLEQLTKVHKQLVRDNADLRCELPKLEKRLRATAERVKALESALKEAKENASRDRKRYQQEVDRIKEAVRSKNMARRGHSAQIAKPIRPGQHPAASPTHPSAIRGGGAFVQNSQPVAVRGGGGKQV
UniProt P02545, residues 1-646: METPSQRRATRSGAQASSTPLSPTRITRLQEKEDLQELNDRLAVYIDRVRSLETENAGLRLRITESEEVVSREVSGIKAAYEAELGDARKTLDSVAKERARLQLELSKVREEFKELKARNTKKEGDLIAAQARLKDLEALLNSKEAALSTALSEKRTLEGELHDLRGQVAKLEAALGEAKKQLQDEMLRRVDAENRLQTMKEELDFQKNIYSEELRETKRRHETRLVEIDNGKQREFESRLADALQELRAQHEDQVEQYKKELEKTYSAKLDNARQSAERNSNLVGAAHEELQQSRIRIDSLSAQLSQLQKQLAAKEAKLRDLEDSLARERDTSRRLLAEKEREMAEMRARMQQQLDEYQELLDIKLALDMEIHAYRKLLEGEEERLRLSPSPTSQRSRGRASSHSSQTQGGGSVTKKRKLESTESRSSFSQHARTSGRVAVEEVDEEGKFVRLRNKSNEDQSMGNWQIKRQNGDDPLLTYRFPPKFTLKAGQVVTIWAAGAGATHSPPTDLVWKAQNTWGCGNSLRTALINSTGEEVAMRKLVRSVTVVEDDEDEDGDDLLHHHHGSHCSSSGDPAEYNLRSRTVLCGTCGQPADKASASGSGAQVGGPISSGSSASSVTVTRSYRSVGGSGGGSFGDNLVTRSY

Experiments:
[1] = biological target: GST-nesprin-1-alpha2 lacking the 18-amino-acid STAR domain (STARdel, aa1-842 bait protein) (human) (UniProt Q8NF91); experiment: affinity purification with mass spectrometry; GST-tagged bait on glutathione magnetic agarose beads, incubated with RIPA extract of cultured human myotubes; beads washed, trypsin digest, nanoLC-MS/MS; beads alone as control; only the target purified
[2] = biological target: GST-nesprin-1-alpha2 wild type (aa1-842, SR1-5, KASH-less bait protein) (human) (UniProt Q8NF91); experiment: as above

| binding [1] | binding [2] | Substance |
| --- | --- | --- |
| no binding | binds | human kinesin light-chain (kinesin light chain 1, 72 kDa) (from UniProt Q07866 1-573) |
| no binding | binds | kinesin heavy-chain (Kinesin 1, heavy chain; KIF5B) (from UniProt P33176 1-963) |
| no binding | no binding | lamin A/C (from UniProt P02545 1-646) |
